Assay [1] has as its target Akt1 (UniProt P31749). Kind of assay: co-immunoprecipitation of endogenous Akt1 with FLAG antibodies.
Assay [2] concerns the target Akt1 (UniProt P31749). Kind of assay: co-immunoprecipitation with anti-FLAG antibody.

Chains of the proteins cited; added tags and fusions are not shown.
UniProt P31749: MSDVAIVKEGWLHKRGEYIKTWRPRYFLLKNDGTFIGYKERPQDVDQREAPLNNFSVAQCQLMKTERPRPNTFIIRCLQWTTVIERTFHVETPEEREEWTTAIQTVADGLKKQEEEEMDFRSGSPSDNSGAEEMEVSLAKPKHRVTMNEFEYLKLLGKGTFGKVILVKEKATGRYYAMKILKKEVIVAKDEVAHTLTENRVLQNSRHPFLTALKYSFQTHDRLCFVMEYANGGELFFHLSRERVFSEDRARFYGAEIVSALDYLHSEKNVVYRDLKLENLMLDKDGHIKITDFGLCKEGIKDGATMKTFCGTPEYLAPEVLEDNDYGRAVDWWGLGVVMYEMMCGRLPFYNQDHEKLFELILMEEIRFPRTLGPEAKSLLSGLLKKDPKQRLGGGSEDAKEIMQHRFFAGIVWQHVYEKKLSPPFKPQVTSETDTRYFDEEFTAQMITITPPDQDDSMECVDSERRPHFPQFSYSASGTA

No constants are given. Whether binding was seen depends on the method and setting. Binding seen in cells or lysates may run through a third protein. Some binding calls cover weakened binding; strength is not graded here.

B1: partial FCHo1 (562-889)-C-3×DDK (protein, human, UniProt O14526 562-889, looked up, not shown: small tags and cut ends)
chain: RRLRSRKVSCPLTRSNGDLSRSLSPSPLGSSAASTALERPSFLSQTGHGVSRGPSPVVLGSQDALPIATAFTEYVHAYFRGHSPSCLARVTGELTMTFPAGIVRVFSGTPPPPVLSFRLVHTTAIEHFQPNADLLFSDPSQSDPETKDFWLNMAALTEALQRQAEQNPTASYYNVVLLRYQFSRPGPQSVPLQLSAHWQCGATLTQVSVEYGYRPGATAVPTPLTNVQILLPVGEPVTNVRLQPAATWNLEEKRLTWRLPDVSEAGGSGRLSASWEPLSGPSTPSPVAAQFTSEGTTLSGVDLELVGSGYRMSLVKRRFATGMYLVSC
Take B1: the binding entry with Akt1 [1] is recorded as “binds”.

B2: partial FCHo1 (1-268)-C-3×DDK (protein, human, UniProt O14526 1-268, looked up, not shown: small tags and cut ends)
chain: MSYFGEHFWGEKNHGFEVLYHSVKQGPISTKELADFIRERATIEETYSKAMAKLSKLASNGTPMGTFAPLWEVFRVSSDKLALCHLELTRKLQDLIKDVLRYGEEQLKTHKKCKEEVVSTLDAVQVLSGVSQLLPKSRENYLNRCMDQERLRRESTSQKEMDKAETKTKKAAESLRRSVEKYNSARADFEQKMLDSALRFQAMEETHLRHMKALLGSYAHSVEDTHVQIGQVHEEFKQNIENVSVEMLLRKFAESKGTGREKPGPLDF
With B2, the binding entry with Akt1 [2] was “binds”.

These data come from patent US20190085093A1.
